# Hit rate of the full screen: of about 52,000 sequences, about 210 (0.4%) were called active.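 Rule for the calls: active = gene whose silencing raises cell survival under the drug, median off-target-corrected z-score across its silencing RNAs 2 or more; inactive = the rest.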 This is one part of the list.
# Assay: Resistance to Poly (ADP-Ribose) Polymerase inhibitor: Gene Identification via Genome-wide siRNA Screen
# Conditions: mouse BRCA2 R2336H ES cells, olaparib, CellTiter-Glo viability; active compounds read high
# In short: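 Mouse BRCA2 R2336H ES cells were reverse-transfected with siRNA (20 nM final), treated at 48 h with 500 nM olaparib, and read by CellTiter-Glo after 72 h. Scores: MAD-based z per siRNA, median per gene, seed off-target correction.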
row,Sequence,z-score
1,GGAAGACGUAUUUGUACACTT against Nsep1,inactive: 0.551
2,GGAAAAGUGCAUUUUGCUGTT against Tex261,inactive: -0.5
3,GGGUUUCUGUAAUGACUAUTT against Zfp113,inactive: -1.87
4,CCGACCAAUGCAUUGACAATT against Lcn2,inactive: 0.265
5,GGGUGUGCCUGAAUUACACTT against Ubn1,inactive: -1
6,GGAAAAAUGCGAACUUACUTT against Npr2,inactive: 1.04
7,GGGUGCAUUUUAAAUACUATT against Spred2,inactive: -0.641
8,GGACUUGUGGCUCAUUGAGTT against BC023754,inactive: -0.0781
9,CCGGGUACAGUCUUUUUGGTT against 8030466O12Rik,inactive: -1.25
10,GGAUCUAUUGAUGGUUCAUTT against 1810034M08Rik,inactive: -1.6
11,GGCUGUGGUUGUAUCAUGATT against C2b,inactive: 0.255
12,GGAACAGGACAAUGACAGUTT against Gzme,inactive: -0.833
13,GCGCAAGCCGUAUUCGAAGTT against Hoxc12,inactive: -0.217
14,GGGUUGGAAAGGUAUCUUATT against Timp4,inactive: 0.934
15,GUUUUAGGCAACCUUGGGUTT against Olfr1038,inactive: 0.364
16,GGCCUUGUACACUUUGAUGTT against 1110057K04Rik,inactive: 0.71
17,UCCAGAGGAUCCGCUGUGATT against Kb37,inactive: -1.11
18,GGCAAUAACCAGUAAAUGUTT against AV284857,inactive: -1.75
19,GGGUGGUUGUAAAAAUUCUTT against Csnk2a2,inactive: 2.36
20,GCUUCUAAAUUUGGUUCUGTT against 9830163H01Rik,inactive: -0.157
21,GCACUAUGGUCCAUAUUAUTT against Olfr154,inactive: -0.715
22,CGGCAGGACAAAUCUAGAUTT against 9830134C10Rik,inactive: -0.541
23,GGUAUACUAGUUUGAAGAGTT against Rpl21,inactive: 1.13
24,GGAAGUACUUCGAUGAAAATT against Bdh,inactive: 0.215
25,GGAUAAAGUACUCCAUUAATT against B930067F20Rik,inactive: -2.51
26,CCCUCAAUGGCCUCAAACUTT against Elavl3,inactive: 1.79
27,GCACCAAGGAGUUUCAUUUTT against Acadm,inactive: -0.28

row,Sequence,z-score
1,GGAACAGGUGAUCCGCUACTT against Lzts2,inactive: 0.495
2,GCAGAUCGAAUAAUAAGAGTT against Rbbp5,inactive: -0.261
3,GGCCUACAGCUGGAAAGAATT against Chrm1,inactive: 0.954
4,GGACAUAAAAGACUUAAAGTT against Actr8,active: 3.83
5,GCAUAUAUUCACCACUAACTT against BC067068,inactive: 0.905
6,GGAUUUCCCAAGCCUUAUUTT against Sncaip,inactive: -0.972
7,CCUUAAAAACUCGAGUAAATT against Gla,inactive: 0.205
8,GCAAAGAGAGUUCGAAUAATT against Klhl2,inactive: -0.429
9,GGCCAUGGACAAAAUGUACTT against Tcfap2a,inactive: -0.341
10,GCCACAACUCCAGAUGCCUTT against Olfr937,inactive: 0.848
11,AAUGUUGAAAACAAGAGCCTT against V1rd14,inactive: 1.38
12,GGUGAUGUAUAUUGAGUCUTT against Sdcbp2,inactive: -0.865
13,GCUCUGUGGACUUCUUGGATT against Znrf4,inactive: -0.564
14,GGCUGAAGACAAAACCUGUTT against A230102I05Rik,inactive: 1.52
15,CCAUUGCCUCACACGAGGATT against Lgals3bp,inactive: 0.956
16,GGAGUUAAAUCCCAAACACTT against C2b,inactive: 0.6
17,GGUUGGAUGCUUUCUAAGATT against Pot1,inactive: 0.673
18,GGGCUGGAAUCUAGGAAGUTT against Gpr2,inactive: -0.0856
19,GGUAUCGUAUAUGGAGAUCTT against Kif13a,inactive: 0.0524
20,CCUGAUAUACAAUCUAACCTT against Fv4,inactive: 1.24
21,CGGCAACCACAAUAUCAAUTT against Mill1,inactive: 0.311
22,CGAUGGCUCUACCAAAGGCTT against Urod,inactive: 0.117
23,GGUUUUUUUCCUGUGAAUGTT against BQ176089,inactive: -0.0104
24,CCAAUGUGUUUGCCAAUAGTT against Psph,inactive: 0.161
25,GGACAUUAUUUCUAUAUGGTT against Eif4el3,inactive: 0.651
26,GGUUGAAGAAUAGAAUGUCTT against Cda,inactive: -1.61
27,GGGAAAAUUAGAAGUCAGGTT against Dscam,inactive: 0.879

row,Sequence,z-score
1,GCUGGUUUUUGUCAUAAACTT against Olfr1316,inactive: 1.93
2,GGUUGAGUGGCAUUUUUUATT against MGC27742,inactive: -1.19
3,CCGAUUUGAUACCCUGGAATT against Tfpi,inactive: -2.41
4,GCAGCUAGCAACAUAGUAUTT against Wbscr22,inactive: -2.19
5,GGAGAAAGACAACUUCCUATT against Clecsf12,inactive: 0.778
6,GGAAGAAAGAAGAAGAGACTT against Lig1,inactive: -2.19
7,CCUCGAAAAUUUGAUACCGTT against 4930562C03Rik,inactive: -0.735
8,GGAUCGAAUCAGGAAUGAATT against Nphs1,inactive: 0.279
9,GGGCCAGUACCAGAAAGAATT against Xcl1,inactive: -1.81
10,GGACUGACCCUGUAAAGAUTT against Zfp296,inactive: -1.1
11,GGAAUGUAUGGUGAGACUUTT against Ap4e1,inactive: -0.686
12,GGCUUCAAGCUAUUCAUGATT against Dgkb,inactive: -0.444
13,GCAGCGAUAUGACAGACUCTT against Axud1,inactive: -1.06
14,GGUUCAGCAUUUUAAAGUGTT against Eif2c3,inactive: 0.809
15,GGCAAAAGAUUACAACAGATT against 1700026P10Rik,inactive: 0.979
16,GCUCUGCUCUUCUGAAGCATT against 1110033C18Rik,inactive: 0.0881
17,CUAUCAAGGGCAGUCAACUTT against Olfr1208,inactive: -1.87
18,GGGCGAAUUUAACACAGUGTT against Txnrd1,inactive: 1.14
19,GGCGAGAAACCUUUCAGAUTT against Zic4,inactive: -0.708
20,GGCAAACAGACUGAGUUUATT against Tsc2,inactive: 0.227
21,AGGAAAACGCAUAGCUUAUTT against LOC434225,inactive: -0.709
22,GGGUUUAGCUCACUGAGUATT against Tm4sf5,inactive: -0.401
23,GGAAAACGGAGAUUUGGAGTT against Es2el,inactive: 0.943
24,GGUCAUGUGAAUUUUUCUGTT against Snrp116,inactive: -3.08
25,GGGUCUGGUGUUAUAUUUGTT against C78409,inactive: 0.224
26,GGUGGACAAUCUGGUCAACTT against Mgat5,inactive: 0.288
27,CCGACAUUCAACAAGAUUUTT against Mta1,inactive: 0.599

row,Sequence,z-score
1,GGAACAUUACAAAAGCUCUTT against Slfn1,inactive: -0.715
2,CCAAAUUACUAGGUUAAAGTT against Rasgrp3,inactive: -1.15
3,GUCACUAUUAAGACACUUATT against BC024322,inactive: -0.851
4,GGACCUUGACGUACAUCAATT against BC019561,inactive: 0.62
5,GCUCGGAUUUCCUACUCACTT against Agps,inactive: 0.386
6,GGUUGAUUUAAACAUUGGATT against Pcdhgb2,inactive: 0.781
7,CCCUGACCGUUUGCUAUAUTT against LOC574530,inactive: -0.803
8,GGUCAACUGAAGAAGAACATT against Rg9mtd2,inactive: -0.389
9,GGAGAACUCUUUCAGAUUCTT against Stk36,inactive: -0.964
10,CCGCUACCUCUCGCUAUAUTT against Gpr12,inactive: -0.839
11,GUAAUCUGUCUUUCGUUGATT against Olfr957,inactive: -0.0539
12,GGACAAGCAACGUAUGUUCTT against 2610528M18Rik,inactive: 1.49
13,GGGCGAGCAGUUUGUGUUUTT against Crybb2,inactive: 0.245
14,CGAUAAGAAUCUCUUCCGCTT against BC017634,inactive: 0.642
15,CCUGAAAGUUCAAAUGUCATT against Ankrd12,inactive: -1.41
16,GGCUGUGAUGUAAAACAGATT against Gm185,inactive: 1.19
17,GCCCUUGGGAUAAUUAUUGTT against 9930019B18Rik,inactive: -0.534
18,GGAAAAGCAAGAGGAAAGATT against Ifnb1,inactive: -1.47
19,GCUAAAAAUAAACAGUCGGTT against 4933435A13Rik,inactive: 0.762
20,GGAAAACUACUGGAACUGGTT against Ifi1,inactive: 0.0555
21,GGAGCUCAUUAGCAAAUAUTT against E030002O03Rik,inactive: -2.5
22,GGCGAGUUUUAUGUCAUUGTT against Fxr1h,inactive: 0.652
23,GGAACUCUUGGAAGAAUAUTT against Katnal1,inactive: -1.64
24,CCUUCGGCAACUUUCUAUUTT against Thrap6,inactive: 0.288

# For convenience, part of the list above.
row,Sequence,z-score
19,GGCGAGAAACCUUUCAGAUTT against Zic4,inactive: -0.708
20,GGCAAACAGACUGAGUUUATT against Tsc2,inactive: 0.227
21,AGGAAAACGCAUAGCUUAUTT against LOC434225,inactive: -0.709
22,GGGUUUAGCUCACUGAGUATT against Tm4sf5,inactive: -0.401
23,GGAAAACGGAGAUUUGGAGTT against Es2el,inactive: 0.943
24,GGUCAUGUGAAUUUUUCUGTT against Snrp116,inactive: -3.08
25,GGGUCUGGUGUUAUAUUUGTT against C78409,inactive: 0.224
26,GGUGGACAAUCUGGUCAACTT against Mgat5,inactive: 0.288
27,CCGACAUUCAACAAGAUUUTT against Mta1,inactive: 0.599
1,GGAACAUUACAAAAGCUCUTT against Slfn1,inactive: -0.715
2,CCAAAUUACUAGGUUAAAGTT against Rasgrp3,inactive: -1.15
3,GUCACUAUUAAGACACUUATT against BC024322,inactive: -0.851
4,GGACCUUGACGUACAUCAATT against BC019561,inactive: 0.62
5,GCUCGGAUUUCCUACUCACTT against Agps,inactive: 0.386
6,GGUUGAUUUAAACAUUGGATT against Pcdhgb2,inactive: 0.781
7,CCCUGACCGUUUGCUAUAUTT against LOC574530,inactive: -0.803
8,GGUCAACUGAAGAAGAACATT against Rg9mtd2,inactive: -0.389
9,GGAGAACUCUUUCAGAUUCTT against Stk36,inactive: -0.964
10,CCGCUACCUCUCGCUAUAUTT against Gpr12,inactive: -0.839
11,GUAAUCUGUCUUUCGUUGATT against Olfr957,inactive: -0.0539
12,GGACAAGCAACGUAUGUUCTT against 2610528M18Rik,inactive: 1.49
13,GGGCGAGCAGUUUGUGUUUTT against Crybb2,inactive: 0.245
14,CGAUAAGAAUCUCUUCCGCTT against BC017634,inactive: 0.642
15,CCUGAAAGUUCAAAUGUCATT against Ankrd12,inactive: -1.41
16,GGCUGUGAUGUAAAACAGATT against Gm185,inactive: 1.19
17,GCCCUUGGGAUAAUUAUUGTT against 9930019B18Rik,inactive: -0.534
18,GGAAAAGCAAGAGGAAAGATT against Ifnb1,inactive: -1.47
19,GCUAAAAAUAAACAGUCGGTT against 4933435A13Rik,inactive: 0.762
20,GGAAAACUACUGGAACUGGTT against Ifi1,inactive: 0.0555
21,GGAGCUCAUUAGCAAAUAUTT against E030002O03Rik,inactive: -2.5
22,GGCGAGUUUUAUGUCAUUGTT against Fxr1h,inactive: 0.652
23,GGAACUCUUGGAAGAAUAUTT against Katnal1,inactive: -1.64

# — PubChem BioAssay AID1347423 (Functional Genomics Laboratory (NCATS/FGL), 2020)
